{"source": "paper PMC8558330", "key": {"[1]": {"molecular_target": "T1, VmD6PKL2 (D6 PROTEIN KINASE LIKE 2 of V. montana), two-hybrid bait PGBKT7-VmD6PKL2 (Vernicia montana)", "T1 sequence": "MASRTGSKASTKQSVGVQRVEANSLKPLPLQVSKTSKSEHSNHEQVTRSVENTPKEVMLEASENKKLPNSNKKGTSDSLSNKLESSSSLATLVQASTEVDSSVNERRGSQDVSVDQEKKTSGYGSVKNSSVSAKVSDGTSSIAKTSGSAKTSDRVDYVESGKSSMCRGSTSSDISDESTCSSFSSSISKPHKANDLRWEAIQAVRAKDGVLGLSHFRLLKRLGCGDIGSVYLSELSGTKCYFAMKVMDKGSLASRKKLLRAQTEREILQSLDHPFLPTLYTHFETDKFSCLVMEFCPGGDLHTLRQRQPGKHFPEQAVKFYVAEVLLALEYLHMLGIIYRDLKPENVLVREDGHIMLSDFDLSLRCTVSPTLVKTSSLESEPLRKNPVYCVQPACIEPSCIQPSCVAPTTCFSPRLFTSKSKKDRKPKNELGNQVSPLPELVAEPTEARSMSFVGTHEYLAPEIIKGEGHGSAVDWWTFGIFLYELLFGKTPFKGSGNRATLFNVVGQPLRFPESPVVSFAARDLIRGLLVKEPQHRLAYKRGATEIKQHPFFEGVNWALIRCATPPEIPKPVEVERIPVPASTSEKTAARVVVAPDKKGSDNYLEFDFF", "experiment": "two-hybrid; Gal4 system; bait PGBKT7-VmD6PKL2 in Y2HGold mated with PGADT7-cDNA library of Fof-1-infected V. montana root in Y187; SD/-Trp-Leu-His/X-α-Gal/AbA, then SD/-Ade-Trp-Leu-His/X-α-Gal/AbA; prey plasmids retransfected for one-to-one-interaction screening"}, "[2]": {"molecular_target": "T2, GST-VmBRXL4 (Vernicia montana)", "T2 sequence": "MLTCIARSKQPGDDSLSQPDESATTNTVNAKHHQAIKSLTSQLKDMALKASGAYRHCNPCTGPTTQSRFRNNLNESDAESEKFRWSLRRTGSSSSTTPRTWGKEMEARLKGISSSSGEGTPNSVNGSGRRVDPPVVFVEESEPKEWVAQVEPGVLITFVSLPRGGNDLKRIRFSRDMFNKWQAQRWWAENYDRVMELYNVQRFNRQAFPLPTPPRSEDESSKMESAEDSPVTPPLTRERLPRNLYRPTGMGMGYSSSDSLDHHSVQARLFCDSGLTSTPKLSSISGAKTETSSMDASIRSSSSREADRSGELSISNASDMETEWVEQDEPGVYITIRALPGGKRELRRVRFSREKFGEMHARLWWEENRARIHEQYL", "experiment": "pull-down; GST, GST-VmSYT3 or GST-VmBRXL4 on glutathione resin; 50 µg of total protein from V. montana root incubated overnight at 4 °C; washed with TBS (10 mM Tris, 150 mM NaCl, pH 8.0); Western blot with antiGST and antiD6PKL2; only the target purified"}, "[3]": {"molecular_target": "T3, GST-VmSYT3 (region of 50 aa to 538 aa) (Vernicia montana)", "T3 sequence": "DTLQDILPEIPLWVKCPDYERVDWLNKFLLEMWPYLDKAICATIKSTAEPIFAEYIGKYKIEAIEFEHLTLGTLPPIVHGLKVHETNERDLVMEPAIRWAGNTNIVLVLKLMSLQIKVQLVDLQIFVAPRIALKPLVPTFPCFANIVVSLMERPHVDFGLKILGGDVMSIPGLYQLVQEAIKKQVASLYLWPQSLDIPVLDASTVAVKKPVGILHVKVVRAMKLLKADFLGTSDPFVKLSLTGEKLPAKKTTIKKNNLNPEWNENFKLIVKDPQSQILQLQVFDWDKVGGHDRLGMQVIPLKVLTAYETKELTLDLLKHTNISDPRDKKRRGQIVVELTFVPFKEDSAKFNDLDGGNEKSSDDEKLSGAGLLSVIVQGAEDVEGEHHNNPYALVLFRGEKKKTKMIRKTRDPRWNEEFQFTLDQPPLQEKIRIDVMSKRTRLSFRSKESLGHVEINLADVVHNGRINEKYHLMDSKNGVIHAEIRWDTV", "experiment": "pull-down; GST, GST-VmSYT3 or GST-VmBRXL4 on glutathione resin; 50 µg of total protein from V. montana root incubated overnight at 4 °C; washed with TBS (10 mM Tris, 150 mM NaCl, pH 8.0); Western blot with antiGST and antiD6PKL2; only the target purified"}}, "note": "These are yes or no findings as the source states them, for the method shown. For some of these results: Binding seen in cells or lysates may run through a third protein. Some results given as binding are weak or reduced against the parent protein; the word gives no strength. Sequences can lack the tags named with a protein.", "data": [{"binder": "VmSYT3 (synaptotagmins 3), two-hybrid prey from the V. montana root cDNA library (protein, UniProt A0A6C0GYC8 1-538) MGFLSTLLGVLGFGFGLPIGLLIGFFLFVYSPPKDVKDPVVRPLHELDSDTLQDILPEIPLWVKCPDYERVDWLNKFLLEMWPYLDKAICATIKSTAEPIFAEYIGKYKIEAIEFEHLTLGTLPPIVHGLKVHETNERDLVMEPAIRWAGNTNIVLVLKLMSLQIKVQLVDLQIFVAPRIALKPLVPTFPCFANIVVSLMERPHVDFGLKILGGDVMSIPGLYQLVQEAIKKQVASLYLWPQSLDIPVLDASTVAVKKPVGILHVKVVRAMKLLKADFLGTSDPFVKLSLTGEKLPAKKTTIKKNNLNPEWNENFKLIVKDPQSQILQLQVFDWDKVGGHDRLGMQVIPLKVLTAYETKELTLDLLKHTNISDPRDKKRRGQIVVELTFVPFKEDSAKFNDLDGGNEKSSDDEKLSGAGLLSVIVQGAEDVEGEHHNNPYALVLFRGEKKKTKMIRKTRDPRWNEEFQFTLDQPPLQEKIRIDVMSKRTRLSFRSKESLGHVEINLADVVHNGRINEKYHLMDSKNGVIHAEIRWDTV", "values": [{"measurement": "binding", "setting": "[1]", "value": "binds"}]}, {"binder": "VmBRXL4 (BREVIS RADIX-LIKE 4), two-hybrid prey from the V. montana root cDNA library (protein, UniProt A0A6C0GYA5 1-377) MLTCIARSKQPGDDSLSQPDESATTNTVNAKHHQAIKSLTSQLKDMALKASGAYRHCNPCTGPTTQSRFRNNLNESDAESEKFRWSLRRTGSSSSTTPRTWGKEMEARLKGISSSSGEGTPNSVNGSGRRVDPPVVFVEESEPKEWVAQVEPGVLITFVSLPRGGNDLKRIRFSRDMFNKWQAQRWWAENYDRVMELYNVQRFNRQAFPLPTPPRSEDESSKMESAEDSPVTPPLTRERLPRNLYRPTGMGMGYSSSDSLDHHSVQARLFCDSGLTSTPKLSSISGAKTETSSMDASIRSSSSREADRSGELSISNASDMETEWVEQDEPGVYITIRALPGGKRELRRVRFSREKFGEMHARLWWEENRARIHEQYL", "values": [{"measurement": "binding", "setting": "[1]", "value": "binds"}]}, {"binder": "VmD6PKL2, endogenous in total protein from root tissue of V. montana (protein, UniProt A0A6C0GWK5 1-610) MASRTGSKASTKQSVGVQRVEANSLKPLPLQVSKTSKSEHSNHEQVTRSVENTPKEVMLEASENKKLPNSNKKGTSDSLSNKLESSSSLATLVQASTEVDSSVNERRGSQDVSVDQEKKTSGYGSVKNSSVSAKVSDGTSSIAKTSGSAKTSDRVDYVESGKSSMCRGSTSSDISDESTCSSFSSSISKPHKANDLRWEAIQAVRAKDGVLGLSHFRLLKRLGCGDIGSVYLSELSGTKCYFAMKVMDKGSLASRKKLLRAQTEREILQSLDHPFLPTLYTHFETDKFSCLVMEFCPGGDLHTLRQRQPGKHFPEQAVKFYVAEVLLALEYLHMLGIIYRDLKPENVLVREDGHIMLSDFDLSLRCTVSPTLVKTSSLESEPLRKNPVYCVQPACIEPSCIQPSCVAPTTCFSPRLFTSKSKKDRKPKNELGNQVSPLPELVAEPTEARSMSFVGTHEYLAPEIIKGEGHGSAVDWWTFGIFLYELLFGKTPFKGSGNRATLFNVVGQPLRFPESPVVSFAARDLIRGLLVKEPQHRLAYKRGATEIKQHPFFEGVNWALIRCATPPEIPKPVEVERIPVPASTSEKTAARVVVAPDKKGSDNYLEFDFF", "values": [{"measurement": "binding", "setting": "[2]", "value": "binds"}, {"measurement": "binding", "setting": "[3]", "value": "binds"}]}]}
